Results: paper PMC11497104
No constants are given. Whether binding was seen depends on the method and setting. Binding seen in cells or lysates may run through a third protein. Some binding calls cover weakened binding; strength is not graded here. For some assays here: Where a sequence is shown, tags or fusion partners need not be part of it.

Protein sequences, listed by entry. Tags and fused reporters are not part of them.
UniProt Q00987: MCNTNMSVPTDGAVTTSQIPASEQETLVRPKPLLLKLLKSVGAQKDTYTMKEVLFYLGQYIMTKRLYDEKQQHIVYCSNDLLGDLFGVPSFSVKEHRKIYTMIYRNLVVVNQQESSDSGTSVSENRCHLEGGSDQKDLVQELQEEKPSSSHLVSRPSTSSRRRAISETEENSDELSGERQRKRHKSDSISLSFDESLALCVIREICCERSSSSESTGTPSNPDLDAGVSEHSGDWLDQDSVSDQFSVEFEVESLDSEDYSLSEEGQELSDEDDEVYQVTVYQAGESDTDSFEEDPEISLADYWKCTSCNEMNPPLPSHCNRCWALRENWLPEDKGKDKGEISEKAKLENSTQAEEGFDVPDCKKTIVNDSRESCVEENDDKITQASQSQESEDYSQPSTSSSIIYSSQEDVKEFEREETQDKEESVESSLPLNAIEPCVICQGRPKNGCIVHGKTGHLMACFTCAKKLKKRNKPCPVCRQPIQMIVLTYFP

Key:
[1] = biological target: T1, Flag-tagged FGF12 (fibroblast growth factor 12) (UniProt P61328); assay: co-IP; HEK293 cells co-transfected with Flag-Fgf12 and His-MDM2 (WT or deletion mutants), 48 h; lysates precipitated with anti-His or anti-Flag antibody, blotted for the other tag
T1 sequence: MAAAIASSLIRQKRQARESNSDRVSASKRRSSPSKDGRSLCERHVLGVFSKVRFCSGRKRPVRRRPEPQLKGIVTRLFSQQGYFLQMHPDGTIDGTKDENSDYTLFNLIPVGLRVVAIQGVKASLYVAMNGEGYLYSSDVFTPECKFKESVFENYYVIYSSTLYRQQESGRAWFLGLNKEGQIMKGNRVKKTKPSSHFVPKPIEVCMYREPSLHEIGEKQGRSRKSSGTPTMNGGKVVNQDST

[2] = biological target: T2, FGF12 (endogenous, keratinocytes) (human (endogenous in HaCaT and NHEK)) (UniProt P61328); assay: co-IP; endogenous proteins, HaCaT lysates; precipitated with anti-MDM2 (IgG as control) or anti-FGF12; untreated, M5 for 0, 12, 24, 48 h, or si-Scr/si-Fgf12
T2 sequence: T1 sequence

| binding [1] | binding [2] | Substance |
| --- | --- | --- |
| binds |  | His-tagged MDM2 (His-MDM2-WT) (from UniProt Q00987 1-491) |
|  | binds | MDM2 (endogenous, keratinocytes) (from UniProt Q00987 1-491) |
